{
  "source": "the supplement of paper PMC8551327",
  "note": "Structures can show the parent of a compound that is named as a salt. The list shows a part of the results. Cut-off read from the data, not from the text of the source: active = 1.25 or more and inactive = the rest. Repeats are few or missing, and single values can be far off.",
  "data": [
    {"tested_on": "Kcc2-LUC knock-in mouse primary cortical neurons (Kcc2 promoter reporter)", "assay": "Kcc2 promoter-driven luciferase activity relative to vehicle control (fold of vehicle (ratio)); higher = stronger Kcc2 promoter activation (Kcc2 expression enhancer)", "details": "100 nM; 48 h", "values": [
      {"smiles": "CCCCCCCCCCCCCCCCCCOCC(O)CO", "note": "(stereo not given) [Batilol]", "Kcc2 promoter-driven luciferase activity": "active: 1.44"},
      {"smiles": "[Mo]", "note": "[Polyoxomolybdate phosphate complex, disodium salt]", "Kcc2 promoter-driven luciferase activity": "inactive: 0.88"},
      {"smiles": "O=c1oc2cc(O)ccc2c2oc3cc(O)ccc3c12", "note": "[Coumestrol]", "Kcc2 promoter-driven luciferase activity": "inactive: 1.05"},
      {"smiles": "COc1ccc(OC)c2nc3c(C(=O)NCCN(C)C)cccc3nc12", "note": "[1-Phenazinecarboxamide,9-dimethoxy-, monohydrochloride]", "Kcc2 promoter-driven luciferase activity": "inactive: 0.72"},
      {"smiles": "Cc1ccc2c(sc(-c3ccc4c(c3)sc(-c3ccc(N(C)C)cc3)[n+]4C)[n+]2C)c1S(=O)(=O)O.Cc1ccc2c(sc(-c3ccc4c(c3)sc(-c3ccc5c(c3)sc(-c3ccc(N(C)C)cc3)[n+]5C)[n+]4C)[n+]2C)c1S(=O)(=O)O", "Kcc2 promoter-driven luciferase activity": "inactive: 0.1"},
      {"smiles": "c1coc(CNc2ncnc3[nH]ncc23)c1", "note": "[N-(Furan-2-ylmethyl)-1H-pyrazolo[3,4-d]pyrimidin-4-amine]", "Kcc2 promoter-driven luciferase activity": "inactive: 0.84"},
      {"smiles": "Nc1ccn([C@@H]2C=C(CO)[C@@H](O)[C@H]2O)c(=O)n1", "note": "[Cyclopentenyl Cytosine]", "Kcc2 promoter-driven luciferase activity": "inactive: 1.12"},
      {"smiles": "Cc1c2ccc3ccccc3c2c[n+]2ccccc12", "note": "[7-methylnaphtho[2,1-b]quinolizin-12-ium;chloride]", "Kcc2 promoter-driven luciferase activity": "inactive: 0.5"},
      {"smiles": "O=C1NC(c2cccc3ccccc23)Nc2ccc(Cl)cc21", "note": "(stereo not given) [6-Chloro-2-naphthalen-1-yl-2,3-dihydro-1H-quinazolin-4-one]", "Kcc2 promoter-driven luciferase activity": "inactive: 1.1"},
      {"smiles": "O=c1cnn([C@@H]2O[C@H](CO)[C@@H](O)[C@H]2O)c(=S)[nH]1", "note": "[6-Aza-2-thiouridine]", "Kcc2 promoter-driven luciferase activity": "inactive: 0.89"}
    ]}
  ]
}
